Results reported in US20060074026A1.
Results are given in words; binding and its absence hold for the method and conditions named. For some assays here: In cells and extracts the contact can be indirect. Some binding calls cover weakened binding; strength is not graded here.

Amino acid sequences for entries named in this document (tags omitted). A change or cut given only in a name is not applied to a line headed by its entry. Residues count along the entry.
UniProt P02647: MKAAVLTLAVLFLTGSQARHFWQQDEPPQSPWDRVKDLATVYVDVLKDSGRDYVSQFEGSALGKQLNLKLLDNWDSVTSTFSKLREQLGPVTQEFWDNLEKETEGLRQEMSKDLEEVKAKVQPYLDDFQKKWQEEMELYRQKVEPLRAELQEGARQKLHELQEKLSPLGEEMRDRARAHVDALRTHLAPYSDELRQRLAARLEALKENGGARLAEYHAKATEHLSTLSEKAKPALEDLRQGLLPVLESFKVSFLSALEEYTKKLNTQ
UniProt P05164, residues 165-745: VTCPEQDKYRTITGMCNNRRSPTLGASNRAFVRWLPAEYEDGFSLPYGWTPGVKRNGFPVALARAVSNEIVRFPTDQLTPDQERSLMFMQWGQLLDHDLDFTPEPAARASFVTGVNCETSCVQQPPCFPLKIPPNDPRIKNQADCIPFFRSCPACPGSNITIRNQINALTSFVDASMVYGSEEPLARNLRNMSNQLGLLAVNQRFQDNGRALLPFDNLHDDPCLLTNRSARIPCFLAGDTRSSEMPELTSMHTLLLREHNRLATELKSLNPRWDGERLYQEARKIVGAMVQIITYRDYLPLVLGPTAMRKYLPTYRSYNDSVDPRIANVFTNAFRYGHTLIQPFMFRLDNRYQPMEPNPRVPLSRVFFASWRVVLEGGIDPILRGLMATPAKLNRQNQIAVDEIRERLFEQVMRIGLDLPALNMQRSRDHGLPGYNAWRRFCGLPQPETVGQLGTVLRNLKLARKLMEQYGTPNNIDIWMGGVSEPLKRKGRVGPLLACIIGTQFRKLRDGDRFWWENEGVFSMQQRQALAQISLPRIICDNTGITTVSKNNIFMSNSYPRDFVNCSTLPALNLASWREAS

Tests used:
[1] = biological target: human apolipoprotein A-I (apoA-I), mature, i.e. minus the signal sequence (human) (UniProt P02647); assay: hydrogen/deuterium exchange MS, HDL (and apoA-I in POPC lipid disks) with MPO
[2] = biological target: human apolipoprotein A-I (apoA-I), mature, i.e. minus the signal sequence (human) (UniProt P02647); assay: hydrogen/deuterium exchange MS, HDL with human MPO (FIG. 5)
[3] = biological target: human apolipoprotein A-I (apoA-I), mature, i.e. minus the signal sequence (human) (UniProt P02647); assay: summary of co-IP and H/D exchange MS; also co-purification of MPO with HDL-like particles from atherosclerotic lesions
[4] = biological target: human apolipoprotein A-I (apoA-I), mature, i.e. minus the signal sequence (human) (UniProt P02647); assay: co-immunoprecipitation, Western blot and Coomassie staining (FIG. 4)
[5] = biological target: human apolipoprotein A-I (apoA-I), mature, i.e. minus the signal sequence (human) (UniProt P02647); assay: cross co-immunoprecipitation from healthy-donor plasma supplemented with purified human MPO, Western blot

Measured: binding

human myeloperoxidase (MPO; donor: hydrogen peroxide, oxidoreductase, EC 1.11.1.7), purified from human leukocytes (from UniProt P05164 165-745) (enzyme)
binds: all assays above
